Our source for the Taste, Sensory profile and Intrinsic flavour impression values is US20080220140A1, “USE OF PROPENYLPHENYL GLYCOSIDES FOR ENHANCING SWEET SENSORY IMPRESSIONS” (SYMRISE GmbH & Co. KG, priority 2007, published 2008).

For data set [1] the following is noted: Current Biology 2005, 15, 1256-1265 and own sensory test; cited from earlier work.
Data set [2] is described as follows: Sensory profile (taste description) of the substance in water or sucrose solution. The format is in vivo. The source says:
Tasting of an equivalent amount of glucose (200 ppm, corresponding to 0.02 wt. %) was not carried out, because corresponding absolute amounts or amounts added to the sucrose already present have no sensory relevance.

On to `C=CCc1ccccc1O[C@@H]1O[C@H](CO)[C@@H](O)[C@H](O)[C@H]1O` [2-allylphenyl-β-D-glucopyranoside], for which the Taste entry in data set [1] is “very bitter”.

Take `O=Cc1ccc(O[C@@H]2O[C@H](CO)[C@@H](O)[C@H](O)[C@H]2O)cc1` [4-carbonylphenyl-β-D-glucopyranoside]: the Taste entry in data set [1] is recorded as “very bitter”.

Consider `CCc1ccc(O[C@@H]2O[C@H](CO)[C@@H](O)[C@H](O)[C@H]2O)cc1` [4-ethylphenyl-β-D-gluco-pyranoside], for which the Taste entry in data set [1] is “very bitter”.

Regarding `Cc1ccc(O[C@@H]2O[C@H](CO)[C@@H](O)[C@H](O)[C@H]2O)cc1` [4-methylphenyl-β-D-glucopyranoside], the Taste result in data set [1] is reported as “very bitter”.

Turning to `C=CCc1ccc(O)cc1` [chavicol, 4-Allylphenol], the Sensory profile entry in data set [2] (2 ppm in 5 wt. % aqueous sugar solution (sucrose)) is listed as “cresol note, rubber, unpleasant”. For the same compound, the Intrinsic flavour impression entry in data set [2] (even at 2 ppm) is “very strong and disruptive”.

As for `C=CCc1ccc(O[C@@H]2O[C@H](CO)[C@@H](O)[C@H](O)[C@H]2O)cc1` [compound 1, 1-O-[4-(propen-2-enyl)phenyl]-D-glucopyranoside], the Sensory profile result is on record as “slightly dusty-dry, otherwise neutral” in data set [2] (100 ppm in 5 wt. % aqueous sugar solution (sucrose)) and “virtually neutral, slightly dusty-dry” in data set [2] (100 ppm in aqueous solution).

Take `OCc1ccccc1O[C@@H]1O[C@H](CO)[C@@H](O)[C@H](O)[C@H]1O` [salicin, 2-(hydroxymethyl)phenyl-β-D-glucopyranoside]: in data set [1], the Taste result is “very bitter”.
